# Literature values as cited in patent US8586527B2, “Cerivastatin to treat pulmonary disorders” (priority 2011, dated 2013).
# For at least one compound, name, drawing or mass did not settle the structure.
# Test system: pulmonary aterial hypertension
# Settings: injected intraperitoneally; cited from earlier work
smiles,measurement,value
CC[C@H](C)C(=O)O[C@H]1C[C@H](O)C=C2C=C[C@H](C)[C@H](CC[C@@H](O)C[C@@H](O)CC(=O)O)[C@H]21 [pravastatin],improvement of pulmonary arterial hypertension,improved
